{"source": "the supplement of paper PMC5949888", "note": "Most values lie at the floor of the assay. Slopes are relative: functional sequences can read slightly below zero.", "data": [{"system": "Saccharomyces cerevisiae PS128 hsf1 delta, HSF1(1-493) fusion", "assay": "growth estimate (transactivation domain function in HSF1 fusion, heat-shock survival) (a.u. (slope of normalised read count over time)); higher = stronger growth at 37°C, i.e. more transactivation activity", "details": "library: random library", "values": [{"substance": "RRVTPLPQNISRMQLLQLGV", "growth estimate": "< -0.25"}, {"substance": "SDVRGSAPQVVLGTVDRGNP", "growth estimate": "< -0.25"}, {"substance": "MQWLSTQGSTQRPVHKR", "growth estimate": "< -0.25"}, {"substance": "PPT", "growth estimate": "< -0.25"}, {"substance": "VMFR", "growth estimate": "< -0.25"}, {"substance": "RTMKGSSGFRAERDWPHRRR", "growth estimate": "< -0.25"}, {"substance": "LGRLQPTFED", "growth estimate": "< -0.25"}, {"substance": "PASESNGEARRG", "growth estimate": "< -0.25"}, {"substance": "TSHAYVRRPRLNGSSRFAKD", "growth estimate": "< -0.25"}, {"substance": "FSMQLV", "growth estimate": "< -0.25"}, {"substance": "VVNVTNRGRRSMYWSLVQES", "growth estimate": "< -0.25"}, {"substance": "MRNP", "growth estimate": "< -0.25"}, {"substance": "VYHCMKCRRHRSPR", "growth estimate": "< -0.25"}, {"substance": "KFRA", "growth estimate": "< -0.25"}, {"substance": "LRRTSPCGCSGF", "growth estimate": "< -0.25"}, {"substance": "CRPATRAAPPSRLVDRVKAR", "growth estimate": "< -0.25"}, {"substance": "ALKPADLRGRLIHRCVVPI", "growth estimate": "< -0.25"}, {"substance": "LTGTWHIKACVGHDGLVGGT", "growth estimate": "< -0.25"}, {"substance": "YKTGRALPIKSKNLFTNESR", "growth estimate": "< -0.25"}, {"substance": "GSGHVNWAE", "growth estimate": "< -0.25"}, {"substance": "VNGVETKDGSAGILSFKYPP", "growth estimate": "< -0.253"}, {"substance": "PQSIANTELARYSRTFTQ", "growth estimate": "< -0.25"}, {"substance": "KGWSDKGIRIR", "growth estimate": "< -0.25"}, {"substance": "QRRKGRCYYSML", "growth estimate": "< -0.25"}, {"substance": "HWSRGGMDNGRKLGGSSANR", "growth estimate": "< -0.25"}, {"substance": "AAISYTVERVQDIPGWSRAN", "growth estimate": "< -0.25"}, {"substance": "ELITSRDTPIS", "growth estimate": "< -0.25"}, {"substance": "VSEPGTRNSVQWVTFNPVGL", "growth estimate": "< -0.25"}, {"substance": "EQVPAGATVYRNLRFLLLLA", "growth estimate": "< -0.25"}, {"substance": "SVVEMLVVRTRPFTSTCQ", "growth estimate": "< -0.25"}, {"substance": "PDQNDV", "growth estimate": "< -0.25"}, {"substance": "GLYSFDCWRRHAQTPSSCSR", "growth estimate": "< -0.25"}, {"substance": "VVWRTCSHGRVETRRGDVGD", "growth estimate": "< -0.25"}, {"substance": "REGYLLY", "growth estimate": "< -0.25"}, {"substance": "LNCVSSFEYSTEDSPRSWH", "growth estimate": -0.0345}, {"substance": "VLPVLNDRDR", "growth estimate": -0.243}, {"substance": "TYI", "growth estimate": "< -0.25"}, {"substance": "DCRTGSA", "growth estimate": "< -0.25"}, {"substance": "SDTSLHELSDLHRRFITIT", "growth estimate": "< -0.25"}, {"substance": "SLELDTAFEQWLAIKSC", "growth estimate": "< -0.25"}, {"substance": "YSGLRRYWAEILGCDSLVET", "growth estimate": "< -0.25"}, {"substance": "KQHVEGRSVKAD", "growth estimate": "< -0.25"}, {"substance": "PPCIVTIITAAGVRSGQTSV", "growth estimate": "< -0.25"}, {"substance": "RKRMGVYSKRIISRYSRGLT", "growth estimate": "< -0.25"}, {"substance": "SLVSHGIPCATPRDDTKSCW", "growth estimate": "< -0.25"}, {"substance": "CWVQPFTVASGRFVTPSEAG", "growth estimate": "< -0.25"}, {"substance": "GPPQRVIQRLPLSIATDERY", "growth estimate": "< -0.25"}, {"substance": "EVHGLSCRSTVREETKR", "growth estimate": "< -0.25"}, {"substance": "GPTHTYISGVLVRPLVFMSR", "growth estimate": "< -0.25"}, {"substance": "ERVVEAASDLGDYLLFKTML", "growth estimate": -0.0984}, {"substance": "GAGLLRLLQLISRQGKVHAI", "growth estimate": "< -0.25"}, {"substance": "TYHVGALARTASSLPSEVPT", "growth estimate": "< -0.25"}, {"substance": "TDQNVLRSRYSTPFSPIPRS", "growth estimate": "< -0.25"}, {"substance": "RRLYVDRLWSILAVWRGS", "growth estimate": "< -0.25"}, {"substance": "FSVEF", "growth estimate": "< -0.25"}, {"substance": "MVPVTMLRPVCKVGAILYLA", "growth estimate": "< -0.25"}, {"substance": "LDLSGERVRREAAI", "growth estimate": "< -0.25"}, {"substance": "DYL", "growth estimate": "< -0.25"}, {"substance": "GLRLNRWIDLTGFRWQSESQ", "growth estimate": "< -0.25"}, {"substance": "QTIVASWSLG", "growth estimate": "< -0.25"}, {"substance": "RETERSEFLRPSTVGELYNS", "growth estimate": "< -0.25"}, {"substance": "DGTCLGAGRR", "growth estimate": "< -0.25"}, {"substance": "RPL", "growth estimate": "< -0.25"}, {"substance": "LWGEVSVMARGAALNSSNIL", "growth estimate": "< -0.25"}, {"substance": "QERLCTAVYASSFAFHLDIH", "growth estimate": "< -0.25"}, {"substance": "HFAPS", "growth estimate": "< -0.25"}, {"substance": "STVMSNLEVLLIHRYSRSRQ", "growth estimate": "< -0.25"}, {"substance": "QSLEWF", "growth estimate": "< -0.25"}, {"substance": "NLRT", "growth estimate": "< -0.25"}, {"substance": "LVFSWGLRRYTGWGLD", "growth estimate": "< -0.25"}, {"substance": "PDNGGSGTRASSTPFYAFCL", "growth estimate": -0.232}, {"substance": "TQAGVVMGGGLDGSFTNIAY", "growth estimate": "< -0.25"}, {"substance": "PWNGAIGCYVPGAVTRGGSA", "growth estimate": -0.22}, {"substance": "FGFRVKWKQTWISSGEGNEP", "growth estimate": "< -0.25"}, {"substance": "RAGAAIYLRVALERVHHWWT", "growth estimate": -0.246}, {"substance": "YEY", "growth estimate": "< -0.25"}, {"substance": "LSSSFSMGSGICMLGTRNTN", "growth estimate": "< -0.25"}, {"substance": "GCPRHRK", "growth estimate": "< -0.25"}, {"substance": "RSV", "growth estimate": "< -0.25"}, {"substance": "LGVHAAGERGQGSPDHLLGS", "growth estimate": "< -0.25"}, {"substance": "YFGCHNIRKRYIIKHLDAPP", "growth estimate": "< -0.25"}, {"substance": "FASQRFLPVRGGTNSMWLP", "growth estimate": "< -0.25"}, {"substance": "RRVR", "growth estimate": "< -0.25"}, {"substance": "SGTGAYLPEIYYKFCILFGP", "growth estimate": "< -0.25"}, {"substance": "TLCRYITW", "growth estimate": -0.222}, {"substance": "ASSWVSRCYVLGQSSH", "growth estimate": "< -0.25"}, {"substance": "DPVVADRSG", "growth estimate": "< -0.25"}, {"substance": "MMSV", "growth estimate": "< -0.25"}, {"substance": "FDIDKIASACVGGVFVPSVR", "growth estimate": "< -0.25"}, {"substance": "RERELGSPLRESWRWGSF", "growth estimate": "< -0.25"}, {"substance": "NLPTDQPHVNVCAKWHGKMI", "growth estimate": "< -0.25"}, {"substance": "LGGHGRP", "growth estimate": "< -0.25"}, {"substance": "MEYSLVICPKRRGDGIRELV", "growth estimate": "< -0.25"}, {"substance": "PVLDPTSAHENKRASAQTGS", "growth estimate": "< -0.25"}, {"substance": "TRPN", "growth estimate": "< -0.25"}, {"substance": "AHSASHCMNTISNLPSRELL", "growth estimate": "< -0.25"}, {"substance": "QADRFRCQKTLDSMATCRRP", "growth estimate": "< -0.25"}, {"substance": "ATLA", "growth estimate": "< -0.25"}, {"substance": "HCVEFL", "growth estimate": "< -0.25"}, {"substance": "TLCLRGCML", "growth estimate": "< -0.25"}]}]}
